Some entries repeat one wording, which the source may state once for all of them.
Assay: Thallium sensitivity of fluorescent agents (fluorescence intensity change in the presence of thallium ions)
Type: physicochemical
Conditions: thallium sensitive fluorescent agents

## Nc1cc(S(=O)(=O)O)cc2cc(S(=O)(=O)O)cc(S(=O)(=O)O)c12 [ANTS]
  change in fluorescence intensity in the presence of thallium ions: decrease in fluorescence intensity

## Cc1ccc(N(CC(=O)O)CC(=O)O)c(OCCOc2cc(-c3c4cc(Cl)c(=O)cc-4oc4cc(O)c(Cl)cc34)ccc2N(CC(=O)O)CC(=O)O)c1 [Fluo-3]
  change in fluorescence intensity in the presence of thallium ions: decrease in fluorescence intensity

## O=C(O)CN(CC(=O)O)c1ccc(-c2c3cc(F)c(=O)cc-3oc3cc(O)c(F)cc23)cc1OCCOc1c(N(CC(=O)O)CC(=O)O)ccc(F)c1F [Fluo-4FF]
  change in fluorescence intensity in the presence of thallium ions: increase in fluorescence

## O=C([O-])COc1cc(NC(=O)c2ccc3c(c2)C(=O)OC32c3cc(Cl)c([O-])cc3Oc3cc([O-])c(Cl)cc32)ccc1N(CC(=O)[O-])CC(=O)[O-].[K+].[K+].[K+].[K+].[K+] [Magnesium Green]
  change in fluorescence intensity in the presence of thallium ions: increase in fluorescence

## COc1cc2cc(-c3ccc(C(=O)O)cc3C(=O)O)oc2cc1N1CCOCCOCCN(c2cc3oc(-c4ccc(C(=O)O)cc4C(=O)O)cc3cc2OC)CCOCCOCC1 [PBFI]
  change in fluorescence intensity in the presence of thallium ions: decrease in fluorescence intensity

## Fluo-4
  change in fluorescence intensity in the presence of thallium ions: decrease in fluorescence intensity

Reference: patent US9476892B2, “Composition and method for measuring thallium influx and efflux” (priority 2007, dated 2016)
